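Rat S16 Schwann cells stably carrying a firefly luciferase reporter under a PMP22 intronic regulatory element; luminescence measured after 24 h of compound exposure.
Seventeen-point concentration series from about 0.00016 to 58 µM.
Potency is the AC50 from a fitted inhibition curve, the concentration giving half the maximal fitted effect; a lower value means a more potent inhibitor.
Calls follow the activity score from curve class and fit: scores 40–100 are active, 1–39 inconclusive, 0 inactive; all rows here are inconclusive.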

Values are in µM.
All entries here are filed as inconclusive.
These entries are mostly ones the record files as inconclusive; other results of the assay are not listed here.
Potencies fitted to partial, single-point or poorly fitting curves are rough.
Activity scores are not listed here.

With C[C@]12CCC(=O)C=C1[C@@H]1C[C@H]1[C@H]1[C@@H]3[C@@H]4C[C@H]4[C@@]4(CCC(=O)O4)[C@@]3(C)CC[C@@H]12 the assay gave fitted potency 4.053 µM (inhibitor, partial curve). With COc1cccc(OC)c1C(=O)NC1C(=O)N2C1SC(C)(C)C2C(=O)O (stereo not given) the assay gave fitted potency 28.7 µM (inhibitor, partial curve, poor fit). COc1ccc(C(=O)c2c(C)n(CCN3CCOCC3)c3ccccc23)cc1 read fitted potency 36.13 µM (inhibitor, partial curve, poor fit). C=C1CC[C@H](O)C/C1=C/C=C1\CCC[C@]2(C)[C@@H]([C@H](C)CC[C@@H](O)C(C)(C)O)CC[C@@H]12 read fitted potency 4.053 µM (inhibitor, full curve, poor fit). For c1ccc2c(c1)OCC(C1=NCCN1)O2 (stereo not given) the result was fitted potency 12.82 µM (inhibitor, partial curve, poor fit). With O=C1C(=O)c2ccccc2C(O)=C1C1CCC(c2ccc(Cl)cc2)CC1 (stereo not given) the assay gave fitted potency 15.47 µM (inhibitor, single point).

Result for CC(=O)[C@]1(O)Cc2c(O)c3c(c(O)c2[C@@H](O[C@H]2C[C@H](N)[C@H](O)[C@H](C)O2)C1)C(=O)c1c(O)cccc1C3=O was fitted potency 0.0181 µM (inhibitor, full curve, poor fit). Result for CC[C@H]1CN2CCc3cc(OC)c(OC)cc3[C@H]2C[C@@H]1C[C@@H]1NCCc2cc(OC)c(OC)cc21 was fitted potency 0.4548 µM (inhibitor, full curve, poor fit). With C=CCN1CCC23c4c5ccc(O)c4O[C@H]2C(=O)CC[C@@]3(O)C1C5 (stereo not given in full) the assay gave fitted potency 32.2 µM (inhibitor, single point). C1COC(NC(C2CC2)C2CC2)=N1 gave fitted potency 25.57 µM (inhibitor, partial curve, poor fit). NC(=O)n1c(O)c(C(=O)c2cccs2)c2cc(Cl)ccc21 gave fitted potency 40.53 µM (inhibitor, single point). For C[N+]1(CC2COC(c3ccccc3)(C3CCCCC3)O2)CCCCC1 (stereo not given) the result was fitted potency 8.087 µM (inhibitor, full curve, poor fit).

Clc1ccc(C(Cn2ccnc2)OCc2ccsc2Cl)c(Cl)c1 (stereo not given) gave fitted potency 18.11 µM (inhibitor, partial curve, poor fit). Result for CC[N+]1(C)CCCC(OC(=O)C(O)(c2ccccc2)c2ccccc2)C1 (stereo not given) was fitted potency 0.6424 µM (inhibitor, full curve, poor fit). CC(C)COCC(CN(Cc1ccccc1)c1ccccc1)N1CCCC1 (stereo not given) gave fitted potency 10.18 µM (inhibitor, partial curve). For CCCCOc1ccc(C(=O)CCN2CCCCC2)cc1 the result was fitted potency 15.47 µM (inhibitor, partial curve). Result for CCCCC[C@H](O)/C=C/[C@H]1[C@H](O)CC(=O)[C@@H]1C/C=C\CCCC(=O)O was fitted potency 32.2 µM (inhibitor, partial curve). C[C@]12CC[C@H]3c4ccc(O)cc4CC[C@@H]3[C@H]1CC[C@@H]2OC(=O)CCC1CCCC1 read fitted potency 18.11 µM (inhibitor, partial curve, poor fit).

For CC(C)(C)NCC(O)c1ccc(O)c(CO)c1 (stereo not given) the result was fitted potency 9.074 µM (inhibitor, partial curve, poor fit). For O=C(CCCCCCC(=O)Nc1ccccc1)NO the result was fitted potency 1.018 µM (inhibitor, full curve, poor fit). For COc1ccc(Cl)cc1C(=O)NCCc1ccc(S(=O)(=O)NC(=O)NC2CCCCC2)cc1 the result was fitted potency 0.0023 µM (inhibitor, full curve, poor fit). O=C1CCCCC1CN1CCCCC1 (stereo not given) gave fitted potency 1.811 µM (inhibitor, partial curve). Result for NNC(=O)CP(=O)(c1ccccc1)c1ccccc1 was fitted potency 32.2 µM (inhibitor, partial curve, poor fit).

3 of the entries, repeated:

CC(C)(C)NCC(O)c1ccc(O)c(CO)c1 (stereo not given) gave fitted potency 9.074 µM (inhibitor, partial curve, poor fit).
CCCCC[C@H](O)/C=C/[C@H]1[C@H](O)CC(=O)[C@@H]1C/C=C\CCCC(=O)O gave fitted potency 32.2 µM (inhibitor, partial curve).
CCCCOc1ccc(C(=O)CCN2CCCCC2)cc1 gave fitted potency 15.47 µM (inhibitor, partial curve).

Data taken from PubChem BioAssay AID624032, deposited by NCATS (2012).